Results as given in the supplement of paper PMC11732987, “Enantioselective OTUD7B fragment discovery through chemoproteomics screening and high-throughput optimisation” (Communications Chemistry, 2025).
Some of the results follow. The data scatter; read single values as rough.

The chains behind the UniProt entries cited, without tags or fusion partners. Where a name states a change or a piece, a line headed by the entry shows the natural chain unless it says otherwise. Residues count along the entry.
UniProt Q14C86, 735-754: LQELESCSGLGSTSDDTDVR
UniProt Q96I24: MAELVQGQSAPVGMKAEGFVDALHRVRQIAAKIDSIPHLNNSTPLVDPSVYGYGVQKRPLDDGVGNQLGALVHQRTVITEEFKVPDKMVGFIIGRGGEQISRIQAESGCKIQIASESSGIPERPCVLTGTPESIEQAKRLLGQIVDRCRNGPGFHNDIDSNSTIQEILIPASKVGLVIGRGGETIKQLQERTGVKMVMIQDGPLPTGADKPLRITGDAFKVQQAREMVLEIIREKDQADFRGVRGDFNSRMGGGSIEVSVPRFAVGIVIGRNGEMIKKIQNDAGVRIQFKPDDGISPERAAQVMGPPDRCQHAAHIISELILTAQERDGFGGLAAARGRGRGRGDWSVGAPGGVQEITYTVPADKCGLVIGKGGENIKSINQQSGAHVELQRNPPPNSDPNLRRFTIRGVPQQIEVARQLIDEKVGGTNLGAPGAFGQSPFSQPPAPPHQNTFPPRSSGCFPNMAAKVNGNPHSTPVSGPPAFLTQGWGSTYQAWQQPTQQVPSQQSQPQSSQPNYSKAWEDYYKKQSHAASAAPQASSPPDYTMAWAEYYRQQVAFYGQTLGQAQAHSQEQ
UniProt P23142: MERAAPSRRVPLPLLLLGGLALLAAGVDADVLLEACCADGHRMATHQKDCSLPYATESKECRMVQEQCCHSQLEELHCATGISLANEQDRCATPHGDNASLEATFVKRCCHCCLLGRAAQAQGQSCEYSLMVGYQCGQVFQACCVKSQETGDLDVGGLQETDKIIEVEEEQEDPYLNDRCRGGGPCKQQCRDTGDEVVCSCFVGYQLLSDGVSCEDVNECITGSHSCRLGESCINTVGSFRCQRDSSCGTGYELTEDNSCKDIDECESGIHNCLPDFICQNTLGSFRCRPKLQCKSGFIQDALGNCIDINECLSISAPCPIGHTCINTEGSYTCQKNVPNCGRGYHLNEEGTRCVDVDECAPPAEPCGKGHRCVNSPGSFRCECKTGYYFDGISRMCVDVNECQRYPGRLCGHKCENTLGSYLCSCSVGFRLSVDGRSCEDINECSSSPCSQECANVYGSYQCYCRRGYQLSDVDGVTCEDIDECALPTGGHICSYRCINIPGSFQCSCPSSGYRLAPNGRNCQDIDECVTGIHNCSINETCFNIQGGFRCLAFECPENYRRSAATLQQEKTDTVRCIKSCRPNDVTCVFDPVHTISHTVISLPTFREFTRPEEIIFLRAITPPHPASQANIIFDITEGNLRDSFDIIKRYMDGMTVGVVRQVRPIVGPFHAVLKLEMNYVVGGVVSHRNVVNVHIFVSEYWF
UniProt P51570: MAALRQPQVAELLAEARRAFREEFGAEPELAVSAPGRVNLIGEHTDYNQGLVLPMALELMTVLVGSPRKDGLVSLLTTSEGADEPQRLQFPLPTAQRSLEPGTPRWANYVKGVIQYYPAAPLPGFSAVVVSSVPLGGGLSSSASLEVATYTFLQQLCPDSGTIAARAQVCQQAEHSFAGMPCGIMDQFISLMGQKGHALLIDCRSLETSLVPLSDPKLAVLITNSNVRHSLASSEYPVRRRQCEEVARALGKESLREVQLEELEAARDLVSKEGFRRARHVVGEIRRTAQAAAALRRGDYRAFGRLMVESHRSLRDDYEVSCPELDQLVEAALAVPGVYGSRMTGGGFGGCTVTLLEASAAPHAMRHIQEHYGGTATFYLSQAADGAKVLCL
UniProt O94915, 888-907: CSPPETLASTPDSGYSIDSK
UniProt Q06546: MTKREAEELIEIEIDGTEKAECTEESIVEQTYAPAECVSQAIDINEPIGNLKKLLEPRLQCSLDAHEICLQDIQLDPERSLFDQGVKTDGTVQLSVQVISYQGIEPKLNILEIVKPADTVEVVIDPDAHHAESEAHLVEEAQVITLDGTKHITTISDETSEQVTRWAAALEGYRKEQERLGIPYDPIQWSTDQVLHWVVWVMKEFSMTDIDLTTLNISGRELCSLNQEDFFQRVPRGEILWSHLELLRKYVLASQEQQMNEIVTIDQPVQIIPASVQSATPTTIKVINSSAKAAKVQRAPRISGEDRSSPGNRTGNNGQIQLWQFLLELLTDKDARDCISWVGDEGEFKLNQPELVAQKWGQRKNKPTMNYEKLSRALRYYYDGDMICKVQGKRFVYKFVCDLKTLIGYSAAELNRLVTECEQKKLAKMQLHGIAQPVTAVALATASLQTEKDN
UniProt P22830: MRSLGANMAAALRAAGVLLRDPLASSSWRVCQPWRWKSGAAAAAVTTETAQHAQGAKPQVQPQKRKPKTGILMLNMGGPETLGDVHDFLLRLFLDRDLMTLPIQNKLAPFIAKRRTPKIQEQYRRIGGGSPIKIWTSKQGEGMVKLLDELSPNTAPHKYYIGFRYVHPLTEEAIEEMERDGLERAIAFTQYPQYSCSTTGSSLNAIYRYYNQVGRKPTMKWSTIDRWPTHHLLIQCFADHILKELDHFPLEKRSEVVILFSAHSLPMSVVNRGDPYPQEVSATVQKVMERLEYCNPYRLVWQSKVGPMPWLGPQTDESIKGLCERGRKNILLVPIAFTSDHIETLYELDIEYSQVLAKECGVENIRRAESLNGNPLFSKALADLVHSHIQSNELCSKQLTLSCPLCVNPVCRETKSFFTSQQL
UniProt Q96ME1, 148-167: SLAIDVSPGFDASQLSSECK
UniProt Q9H334, 11-33: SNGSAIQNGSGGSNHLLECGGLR
UniProt Q92562: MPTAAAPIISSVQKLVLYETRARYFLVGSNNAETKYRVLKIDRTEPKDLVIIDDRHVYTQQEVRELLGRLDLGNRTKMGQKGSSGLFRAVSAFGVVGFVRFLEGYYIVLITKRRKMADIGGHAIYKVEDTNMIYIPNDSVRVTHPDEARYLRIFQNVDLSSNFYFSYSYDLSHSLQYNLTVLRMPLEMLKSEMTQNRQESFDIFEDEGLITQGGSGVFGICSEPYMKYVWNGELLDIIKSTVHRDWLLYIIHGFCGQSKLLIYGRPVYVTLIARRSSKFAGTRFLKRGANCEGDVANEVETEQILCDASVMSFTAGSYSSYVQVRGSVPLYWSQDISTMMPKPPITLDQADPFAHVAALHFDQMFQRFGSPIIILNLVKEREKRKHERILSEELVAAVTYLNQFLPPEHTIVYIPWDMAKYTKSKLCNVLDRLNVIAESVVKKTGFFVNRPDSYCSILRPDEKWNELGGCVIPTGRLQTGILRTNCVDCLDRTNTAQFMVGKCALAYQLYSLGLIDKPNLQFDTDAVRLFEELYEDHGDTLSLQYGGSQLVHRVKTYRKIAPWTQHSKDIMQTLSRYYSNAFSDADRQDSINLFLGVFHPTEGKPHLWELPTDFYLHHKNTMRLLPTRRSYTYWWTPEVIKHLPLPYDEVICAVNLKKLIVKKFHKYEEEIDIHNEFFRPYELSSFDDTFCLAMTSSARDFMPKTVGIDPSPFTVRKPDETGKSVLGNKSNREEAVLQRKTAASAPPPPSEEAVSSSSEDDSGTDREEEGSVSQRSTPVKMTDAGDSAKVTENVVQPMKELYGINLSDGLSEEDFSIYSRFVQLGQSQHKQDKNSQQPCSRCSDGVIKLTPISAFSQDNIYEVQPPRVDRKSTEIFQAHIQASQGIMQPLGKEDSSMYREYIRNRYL
UniProt Q96IG2: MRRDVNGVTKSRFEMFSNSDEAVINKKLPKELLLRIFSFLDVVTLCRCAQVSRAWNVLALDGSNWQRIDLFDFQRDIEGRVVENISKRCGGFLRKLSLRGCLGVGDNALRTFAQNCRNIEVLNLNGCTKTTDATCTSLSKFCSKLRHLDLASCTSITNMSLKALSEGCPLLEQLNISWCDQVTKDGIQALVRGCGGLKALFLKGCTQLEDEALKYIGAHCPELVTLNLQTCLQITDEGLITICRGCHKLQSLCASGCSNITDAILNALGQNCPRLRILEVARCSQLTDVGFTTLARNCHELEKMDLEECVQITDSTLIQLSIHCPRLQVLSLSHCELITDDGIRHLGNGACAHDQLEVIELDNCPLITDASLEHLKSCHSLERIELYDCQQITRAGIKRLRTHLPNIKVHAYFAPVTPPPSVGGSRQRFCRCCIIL
UniProt Q9NY12, 88-107: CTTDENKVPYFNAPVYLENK
UniProt Q96CP2, 112-138: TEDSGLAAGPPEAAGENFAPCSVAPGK
UniProt Q6PIW4: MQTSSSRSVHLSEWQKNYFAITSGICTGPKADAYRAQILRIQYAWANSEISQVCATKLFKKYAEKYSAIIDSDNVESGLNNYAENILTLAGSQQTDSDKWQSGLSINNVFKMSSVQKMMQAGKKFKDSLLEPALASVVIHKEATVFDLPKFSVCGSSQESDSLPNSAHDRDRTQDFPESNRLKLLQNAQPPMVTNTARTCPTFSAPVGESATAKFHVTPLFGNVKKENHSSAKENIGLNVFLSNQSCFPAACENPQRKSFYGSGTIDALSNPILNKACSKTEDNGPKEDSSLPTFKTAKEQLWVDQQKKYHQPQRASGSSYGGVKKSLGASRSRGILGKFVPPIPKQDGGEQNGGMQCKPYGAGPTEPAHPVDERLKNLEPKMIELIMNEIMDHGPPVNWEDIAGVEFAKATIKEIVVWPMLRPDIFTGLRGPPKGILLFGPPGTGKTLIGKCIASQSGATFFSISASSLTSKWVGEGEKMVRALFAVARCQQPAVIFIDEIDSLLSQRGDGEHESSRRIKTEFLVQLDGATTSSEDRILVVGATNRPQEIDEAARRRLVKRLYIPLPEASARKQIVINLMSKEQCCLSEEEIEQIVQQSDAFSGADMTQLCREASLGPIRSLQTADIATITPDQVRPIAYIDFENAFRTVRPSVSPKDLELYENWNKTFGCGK
UniProt Q14CZ7: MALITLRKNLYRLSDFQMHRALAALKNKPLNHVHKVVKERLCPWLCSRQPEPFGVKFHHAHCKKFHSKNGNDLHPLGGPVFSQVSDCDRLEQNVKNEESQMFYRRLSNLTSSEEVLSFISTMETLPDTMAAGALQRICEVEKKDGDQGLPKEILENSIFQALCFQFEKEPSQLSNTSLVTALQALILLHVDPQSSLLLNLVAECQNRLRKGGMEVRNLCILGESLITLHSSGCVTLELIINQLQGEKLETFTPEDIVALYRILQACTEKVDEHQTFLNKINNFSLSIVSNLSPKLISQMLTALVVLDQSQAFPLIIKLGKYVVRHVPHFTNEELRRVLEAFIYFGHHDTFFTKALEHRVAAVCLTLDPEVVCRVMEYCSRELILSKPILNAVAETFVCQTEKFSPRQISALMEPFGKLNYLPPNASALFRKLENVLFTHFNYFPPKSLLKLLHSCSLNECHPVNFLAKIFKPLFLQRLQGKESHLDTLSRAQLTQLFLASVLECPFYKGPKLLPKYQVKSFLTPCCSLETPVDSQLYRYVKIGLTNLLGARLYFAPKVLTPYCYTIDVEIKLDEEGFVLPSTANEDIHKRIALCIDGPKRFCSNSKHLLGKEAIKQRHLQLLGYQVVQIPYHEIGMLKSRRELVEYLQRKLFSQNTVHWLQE
UniProt Q9UKT4: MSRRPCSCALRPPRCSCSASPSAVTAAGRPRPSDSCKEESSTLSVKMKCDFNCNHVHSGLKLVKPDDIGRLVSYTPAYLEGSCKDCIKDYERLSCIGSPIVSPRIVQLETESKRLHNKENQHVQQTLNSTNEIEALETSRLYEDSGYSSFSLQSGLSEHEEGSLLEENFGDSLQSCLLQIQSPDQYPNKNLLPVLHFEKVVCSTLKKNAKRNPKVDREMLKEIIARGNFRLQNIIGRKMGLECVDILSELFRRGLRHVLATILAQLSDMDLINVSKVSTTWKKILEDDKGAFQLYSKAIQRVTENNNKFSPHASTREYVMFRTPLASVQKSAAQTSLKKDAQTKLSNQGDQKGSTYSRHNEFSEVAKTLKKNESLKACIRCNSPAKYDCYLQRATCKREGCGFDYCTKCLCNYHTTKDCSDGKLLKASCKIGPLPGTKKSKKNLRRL
UniProt Q13642: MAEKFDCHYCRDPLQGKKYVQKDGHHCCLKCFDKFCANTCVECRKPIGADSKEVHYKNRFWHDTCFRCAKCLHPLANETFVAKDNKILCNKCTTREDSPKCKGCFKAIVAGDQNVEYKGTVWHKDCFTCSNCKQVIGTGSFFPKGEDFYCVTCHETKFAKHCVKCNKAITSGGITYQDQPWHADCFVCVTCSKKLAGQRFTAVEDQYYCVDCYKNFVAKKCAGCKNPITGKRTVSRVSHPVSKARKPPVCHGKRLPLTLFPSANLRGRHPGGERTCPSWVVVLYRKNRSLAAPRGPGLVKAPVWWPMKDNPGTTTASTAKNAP
UniProt Q9UK99: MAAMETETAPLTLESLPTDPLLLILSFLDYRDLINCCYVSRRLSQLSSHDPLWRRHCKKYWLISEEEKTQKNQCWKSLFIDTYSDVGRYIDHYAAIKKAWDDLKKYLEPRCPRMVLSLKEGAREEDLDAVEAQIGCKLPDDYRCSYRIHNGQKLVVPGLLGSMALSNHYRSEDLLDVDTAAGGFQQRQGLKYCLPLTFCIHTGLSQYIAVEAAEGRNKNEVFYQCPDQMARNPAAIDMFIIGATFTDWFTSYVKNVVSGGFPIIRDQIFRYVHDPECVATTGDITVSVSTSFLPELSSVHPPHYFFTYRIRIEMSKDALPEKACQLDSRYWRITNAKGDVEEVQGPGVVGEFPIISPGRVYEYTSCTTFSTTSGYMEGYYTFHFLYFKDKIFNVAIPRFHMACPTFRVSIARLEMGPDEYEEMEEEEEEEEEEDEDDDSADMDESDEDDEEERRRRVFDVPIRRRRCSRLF

How the values were obtained:
[1] = compound: ClCC(=O)N[C@@H]1CCCc2ccccc12; experiment: log2 mean competition ratio of IA-DTB cysteine labelling (DMSO/compound) (log2 ratio); higher = stronger cysteine engagement by compound; conditions: treatment time: 4 h, cell line lysate: HEK293T
Description: (§1)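 IA-DTB competitive cysteine chemoproteomics in HEK293T RIPA lysate. Lysates were treated with compound 29 or 30 at 50 or 200 µM for 4 h, then IA-DTB (500 µM, 1 h), trypsin-digested, NeutrAvidin-enriched and analysed by diaPASEF. Competition ratio = intensity DMSO / intensity compound (n=4 treated, n=64 DMSO); binding: mean log2 CR ≥ 1 and p ≤ 0.05 plus QC filters. Target is the cysteine site.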

[2] = compound: ClCC(=O)N[C@H]1CCCc2ccccc12; experiment: as above; conditions: treatment time: 4 h, cell line lysate: HEK293T
Description: as §1

Target | log2 mean competition ratio ([1]; 50 µM) | log2 mean competition ratio ([1]; 200 µM) | log2 mean competition ratio ([2]; 50 µM) | log2 mean competition ratio ([2]; 200 µM)
FLII C241 (UniProt Q13045) | -0.0189 | -0.11 | -0.08 | 0.0383
GAPVD1 C741 (UniProt Q14C86) | -0.4 | -0.179 | 0.276 | 0.0956
GAB1 C360 (UniProt Q13480) | 0.094 | 0.24 | -0.25 | 0.159
FNDC3A C211 (UniProt Q9Y2H6) | 0.247 | 0.113 | -0.448 | 0.139
FLCN C454 (UniProt Q8NFG4) | -0.0626 | -0.124 | -0.399 | -0.0988
FLNA C1157 | -0.253 | -0.447 | -0.687 | -0.583
FZD2 C499 (UniProt Q14332) | -0.224 | 0.3 | 0.0898 | 0.264
FUBP3 C366 (UniProt Q96I24) | -0.0215 | -0.0658 | 0.0432 | 0.0133
GAPVD1 C275 (UniProt Q14C86) | 0.261 | 0.0667 | -0.334 | -0.103
FBLN1 C341 (UniProt P23142) | -0.00519 |  | -0.13 | 
FN3KRP C11 (UniProt Q9HA64) | -0.0603 | 0.0265 | -0.341 | 0.0842
FASTKD5 C525 (UniProt Q7L8L6) | -0.0348 | 0.0847 | 0.132 | -0.163
GALK1 C243 (UniProt P51570) | -0.363 | 0.383 | 0.308 | 0.327
GAB1 C213 (UniProt Q13480) | -0.12 | -0.0608 | -0.266 | -0.278
FRYL C560 (UniProt O94915) | 0.134 | -0.0619 | 0.158 | -0.14
GABPA C223 (UniProt Q06546) | -0.273 | -0.257 | -0.113 | -0.297
FBL C268 (UniProt P22087) | -0.0902 | -0.0499 | -0.414 | -0.00541
FASTKD2 C645 (UniProt Q9NYY8) | 0.191 | -0.224 | -0.078 | -0.331
FRYL C888 (UniProt O94915) | 0.295 | -0.232 | -0.00548 | -0.402
FECH C294 (UniProt P22830) | -0.251 |  | -0.429 | -0.285
FASTKD2 C377 (UniProt Q9NYY8) | 0.551 | 1.53 | 0.836 | 1.59
FBXL18 C166 (UniProt Q96ME1) | -0.116 | 0.113 | -0.351 | 0.145

Target | log2 mean competition ratio ([1]; 50 µM) | log2 mean competition ratio ([1]; 200 µM) | log2 mean competition ratio ([2]; 50 µM) | log2 mean competition ratio ([2]; 200 µM)
FBXL18 C513 (UniProt Q96ME1) |  | 0.235 | 0.0215 | 0.00338
FOXP1 C29 (UniProt Q9H334) | -0.109 | 0.327 | -0.324 | 0.139
FIG4 C839 (UniProt Q92562) | 0.119 | 0.151 | 0.0452 | 0.24
GAPVD1 C568 (UniProt Q14C86) | 0.0118 | 0.193 | 0.556 | 0.193
GADD45GIP1 C124 (UniProt Q8TAE8) | 0.271 | 0.0312 | 0.0552 | -0.0549
FKBP10 C110 (UniProt Q96AY3) | -0.00616 | 0.0822 | 0.146 | 0.213
FBXL20 C205 (UniProt Q96IG2) | 0.151 | -0.143 | -0.101 | 0.141
FCSK C970 (UniProt Q8N0W3) | -0.308 | 0.208 | -0.127 | 0.589
FIG4 C842 (UniProt Q92562) | -0.132 | 0.133 | 0.045 | 0.223
GAPVD1 C1396 (UniProt Q14C86) | 0.0116 | 0.119 | 0.66 | 0.31
GAR1 C88 (UniProt Q9NY12) | -0.248 | 0.323 | -0.26 | -0.0725
FLYWCH2 C132 (UniProt Q96CP2) | -0.281 | -0.134 | 0.394 | -0.0616
FASN C1992 | -0.159 | -0.103 | -0.255 | -0.253
FIGNL1 C54 (UniProt Q6PIW4) |  | 0.075 |  | 0.422
FASTKD3 C594 (UniProt Q14CZ7) | -0.0999 | 0.147 | -0.248 | -0.000307
FIP1L1 C216 (UniProt Q6UN15) | -0.469 | -0.127 | 0.162 | -0.103
FASTKD3 C266 (UniProt Q14CZ7) | 0.0196 | -0.0505 | -0.286 | -0.0827
GART C1005 | 0.0639 | -0.0588 | 0.046 | 0.0384
FBXO5 C389 (UniProt Q9UKT4) | 0.164 | -0.111 | 0.64 | -0.247
FHL1 C65 (UniProt Q13642) | 0.36 | 0.237 | 0.494 | -0.0239
GATC C99 (UniProt O43716) | -0.238 | 0.0199 | -0.124 | 0.0164
FBXO3 C136 (UniProt Q9UK99) | -0.339 | 0.0483 | -0.241 | -0.0551

Pulled one by one from the list above, 3 records:
Target | log2 mean competition ratio ([1]; 50 µM) | log2 mean competition ratio ([1]; 200 µM) | log2 mean competition ratio ([2]; 50 µM) | log2 mean competition ratio ([2]; 200 µM)
FIGNL1 C54 (UniProt Q6PIW4) |  | 0.075 |  | 0.422
FIG4 C842 (UniProt Q92562) | -0.132 | 0.133 | 0.045 | 0.223
FBXO3 C136 (UniProt Q9UK99) | -0.339 | 0.0483 | -0.241 | -0.0551
